According to PMC8202955, “The nonreceptor tyrosine kinase SRMS inhibits autophagy and promotes tumor growth by phosphorylating the scaffolding protein FKBP51” (PLoS Biology, 2021):
These are yes or no findings as the source states them, for the method shown. In cells and extracts the contact can be indirect. Some results given as binding are weak or reduced against the parent protein; the word gives no strength. For some of these results: Sequences can lack the tags named with a protein. Blank lines part the entries; values can stand above or below the molecule they belong to.

The chains behind the UniProt entries cited, without tags or fusion partners. Where a name states a change or a piece, a line headed by the entry shows the natural chain unless it says otherwise. Residues count along the entry.
UniProt Q9H3Y6: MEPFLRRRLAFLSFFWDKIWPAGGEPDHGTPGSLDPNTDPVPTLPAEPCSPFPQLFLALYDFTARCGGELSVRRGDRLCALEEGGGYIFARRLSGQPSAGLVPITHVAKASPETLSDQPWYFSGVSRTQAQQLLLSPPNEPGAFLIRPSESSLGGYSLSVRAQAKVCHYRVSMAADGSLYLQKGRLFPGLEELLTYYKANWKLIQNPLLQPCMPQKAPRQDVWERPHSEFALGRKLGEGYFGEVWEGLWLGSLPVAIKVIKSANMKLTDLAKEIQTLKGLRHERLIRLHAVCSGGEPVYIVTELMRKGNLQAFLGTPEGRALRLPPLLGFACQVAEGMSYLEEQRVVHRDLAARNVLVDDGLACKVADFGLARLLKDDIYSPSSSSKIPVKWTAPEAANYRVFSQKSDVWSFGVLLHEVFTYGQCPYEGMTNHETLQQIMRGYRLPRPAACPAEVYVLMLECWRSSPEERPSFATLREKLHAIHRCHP
Myc-SRMS amino acids 213-488: residues 213-488 of Q9H3Y6
UniProt O60346: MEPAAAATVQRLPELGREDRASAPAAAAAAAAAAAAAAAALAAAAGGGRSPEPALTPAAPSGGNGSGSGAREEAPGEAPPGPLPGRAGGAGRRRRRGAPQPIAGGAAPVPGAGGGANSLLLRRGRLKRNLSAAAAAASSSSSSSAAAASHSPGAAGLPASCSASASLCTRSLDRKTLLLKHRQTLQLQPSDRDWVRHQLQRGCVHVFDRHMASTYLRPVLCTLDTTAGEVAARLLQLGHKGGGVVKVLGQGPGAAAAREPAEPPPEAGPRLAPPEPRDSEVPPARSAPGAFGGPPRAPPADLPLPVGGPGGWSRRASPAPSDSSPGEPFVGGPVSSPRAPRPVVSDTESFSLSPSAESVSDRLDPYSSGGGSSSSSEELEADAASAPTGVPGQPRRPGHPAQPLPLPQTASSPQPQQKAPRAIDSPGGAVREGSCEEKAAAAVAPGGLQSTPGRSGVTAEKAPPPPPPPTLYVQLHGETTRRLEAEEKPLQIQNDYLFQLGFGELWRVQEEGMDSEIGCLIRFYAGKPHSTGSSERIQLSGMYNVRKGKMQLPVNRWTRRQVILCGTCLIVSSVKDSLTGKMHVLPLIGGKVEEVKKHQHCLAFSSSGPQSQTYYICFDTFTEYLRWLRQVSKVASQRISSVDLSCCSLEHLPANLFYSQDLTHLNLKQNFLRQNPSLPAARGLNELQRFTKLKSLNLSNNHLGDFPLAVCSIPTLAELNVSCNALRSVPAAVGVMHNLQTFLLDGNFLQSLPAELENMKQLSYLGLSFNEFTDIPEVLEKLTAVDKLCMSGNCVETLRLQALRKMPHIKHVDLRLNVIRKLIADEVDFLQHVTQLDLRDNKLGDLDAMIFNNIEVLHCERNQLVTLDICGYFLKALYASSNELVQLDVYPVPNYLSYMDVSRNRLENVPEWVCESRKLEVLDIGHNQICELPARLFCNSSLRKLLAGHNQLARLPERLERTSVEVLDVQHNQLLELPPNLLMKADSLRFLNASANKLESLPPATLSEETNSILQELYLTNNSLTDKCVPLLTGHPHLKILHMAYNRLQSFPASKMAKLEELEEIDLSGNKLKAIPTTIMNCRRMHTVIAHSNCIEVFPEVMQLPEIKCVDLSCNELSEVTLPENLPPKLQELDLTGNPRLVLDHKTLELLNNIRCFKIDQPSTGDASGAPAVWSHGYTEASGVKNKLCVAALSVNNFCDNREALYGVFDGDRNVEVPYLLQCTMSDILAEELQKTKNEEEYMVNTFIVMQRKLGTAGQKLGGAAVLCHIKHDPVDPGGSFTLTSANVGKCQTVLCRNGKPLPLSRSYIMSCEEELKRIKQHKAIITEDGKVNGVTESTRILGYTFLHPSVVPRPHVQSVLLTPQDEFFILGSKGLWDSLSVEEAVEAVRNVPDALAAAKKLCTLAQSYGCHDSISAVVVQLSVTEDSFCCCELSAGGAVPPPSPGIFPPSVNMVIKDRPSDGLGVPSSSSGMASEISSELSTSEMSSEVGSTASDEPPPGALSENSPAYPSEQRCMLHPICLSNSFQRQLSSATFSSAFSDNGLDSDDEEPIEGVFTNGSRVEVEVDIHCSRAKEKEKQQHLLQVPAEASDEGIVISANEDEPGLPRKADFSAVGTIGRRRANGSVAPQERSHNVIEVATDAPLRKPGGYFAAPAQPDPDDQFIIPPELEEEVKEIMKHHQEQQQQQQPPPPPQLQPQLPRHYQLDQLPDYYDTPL
UniProt P31749: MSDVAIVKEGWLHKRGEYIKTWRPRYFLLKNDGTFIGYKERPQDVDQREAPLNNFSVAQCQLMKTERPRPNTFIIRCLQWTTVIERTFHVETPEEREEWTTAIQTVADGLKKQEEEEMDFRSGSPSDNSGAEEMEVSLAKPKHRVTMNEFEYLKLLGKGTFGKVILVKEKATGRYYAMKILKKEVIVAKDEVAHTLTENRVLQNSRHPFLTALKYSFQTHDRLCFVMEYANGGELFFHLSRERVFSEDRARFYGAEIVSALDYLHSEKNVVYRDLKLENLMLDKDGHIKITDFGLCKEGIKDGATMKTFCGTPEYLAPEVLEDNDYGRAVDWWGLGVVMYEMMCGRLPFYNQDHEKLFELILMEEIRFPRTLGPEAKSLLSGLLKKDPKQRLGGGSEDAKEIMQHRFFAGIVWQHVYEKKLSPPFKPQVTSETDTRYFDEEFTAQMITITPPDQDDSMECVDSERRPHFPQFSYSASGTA

Legend:
[1] = biological target: T1, FK506-binding protein 51 (endogenous) (human (endogenous in HEK293, MDA-MB-231, U2OS)) (UniProt Q13451); experiment: co-IP; endogenous proteins of MDA-MB-231 lysates; IP with anti-SRMS, anti-FKBP51 or anti-Beclin 1, western blot; parental vs SRMS knockout cells, DMSO vs 0.5 uM ibrutinib for 4 h
T1 sequence: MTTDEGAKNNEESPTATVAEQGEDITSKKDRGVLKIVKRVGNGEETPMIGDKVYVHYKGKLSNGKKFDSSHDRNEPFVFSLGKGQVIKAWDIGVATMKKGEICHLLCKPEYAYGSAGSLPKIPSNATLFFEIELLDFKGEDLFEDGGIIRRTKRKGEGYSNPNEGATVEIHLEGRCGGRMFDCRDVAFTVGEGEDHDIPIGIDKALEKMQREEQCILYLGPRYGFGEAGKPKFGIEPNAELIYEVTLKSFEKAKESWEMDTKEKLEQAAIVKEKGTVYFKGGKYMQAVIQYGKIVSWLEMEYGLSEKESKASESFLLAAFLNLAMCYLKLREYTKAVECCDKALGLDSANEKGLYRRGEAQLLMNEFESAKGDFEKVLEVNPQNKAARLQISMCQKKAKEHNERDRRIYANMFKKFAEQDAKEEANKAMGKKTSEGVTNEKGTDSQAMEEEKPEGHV

[2] = biological target: T1, FK506-binding protein 51 (endogenous) (human (endogenous in HEK293, MDA-MB-231, U2OS)); experiment: co-IP; endogenous proteins of SRMS knockout U2OS cells expressing WT SRMS or SRMS(K258A); IP with anti-FKBP51 or IgG control, western blot
Flag-FKBP51 = biological target: T2, Flag-FKBP51 (UniProt Q13451); experiment: co-IP; FKBP51 transfected with PHLPP, with or without SRMS, in 293T cells; IP by anti-Flag, western blot
T2 sequence: T1 sequence

Myc-SRMS K258A (human) = Myc-SRMS K258A (human) (UniProt Q9H3Y6); experiment: co-IP; Flag-FKBP51 co-transfected with Myc-SRMS or Myc-SRMS K258A in HeLa cells; IP by anti-Myc, western blot; lysis in 50 mM Tris-HCl pH 8.0, 150 mM NaCl, 0.5% NP-40
[3] = biological target: Myc-SRMS amino acids 213-488 (human) (UniProt Q9H3Y6); experiment: co-IP; truncated Myc-SRMS constructs co-transfected with Flag-FKBP51 in HEK293FT cells; IP with anti-Myc, western blot

binding [1]: binds | binding [2]: binds
Molecule: PHLPP1 (endogenous) (from UniProt O60346 1-1717) (enzyme)

binding (Flag-FKBP51): binds
Molecule: PHLPP1 (ectopic) (from UniProt O60346 1-1717) (enzyme)

binding [1]: binds | binding [2]: binds
Molecule: AKT1 (endogenous) (from UniProt P31749 1-480) (enzyme)

binding (Myc-SRMS K258A (human)): binds | binding [3]: binds
B1: Flag-FKBP51 (protein, UniProt Q13451 1-457)
chain: T1 sequence
